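Primary screen of methionyl-tRNA synthetase; the read-out is not stated. Target: Methionyl-tRNA synthetase (putative), Leishmania donovani (UniProt E9BF75). The test concentration is not given. The values are filed as inhibition. Of about 68,000 compounds tested this way, about 24 (0.035%) reached 50% or more in at least one test.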

Amino acid sequences for entries named in this document (tags omitted).
UniProt E9BF75, entry or part of it: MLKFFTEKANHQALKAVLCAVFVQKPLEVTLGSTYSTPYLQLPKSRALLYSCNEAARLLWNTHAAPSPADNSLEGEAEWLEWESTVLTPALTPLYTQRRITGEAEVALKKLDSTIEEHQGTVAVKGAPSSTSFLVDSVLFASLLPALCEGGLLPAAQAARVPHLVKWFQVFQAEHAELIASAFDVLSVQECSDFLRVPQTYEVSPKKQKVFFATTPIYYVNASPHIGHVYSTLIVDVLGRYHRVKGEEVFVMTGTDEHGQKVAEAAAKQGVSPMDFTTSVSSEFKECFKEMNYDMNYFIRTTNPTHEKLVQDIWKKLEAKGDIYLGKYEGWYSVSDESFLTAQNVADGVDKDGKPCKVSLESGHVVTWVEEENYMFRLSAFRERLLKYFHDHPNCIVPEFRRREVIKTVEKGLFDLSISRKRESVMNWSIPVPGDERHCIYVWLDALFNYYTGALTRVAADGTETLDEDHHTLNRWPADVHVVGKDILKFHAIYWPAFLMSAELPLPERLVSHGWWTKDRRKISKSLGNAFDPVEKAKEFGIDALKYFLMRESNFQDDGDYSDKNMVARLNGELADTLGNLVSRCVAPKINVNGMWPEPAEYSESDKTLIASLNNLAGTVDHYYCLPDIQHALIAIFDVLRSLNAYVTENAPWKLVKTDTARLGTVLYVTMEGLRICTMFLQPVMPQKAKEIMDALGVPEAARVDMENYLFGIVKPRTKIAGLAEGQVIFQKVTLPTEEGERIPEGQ

Results are percentages, as filed.
How 0% and 100% were set is not recorded. Most values in the screen are low, and negative values occur.
This is an unselected part of the compounds tested.

structure	Inhibition
O=C(NC1CC1)C1CNCCN1C(=O)COc1ccc2c(c1)OCO2 (centres undefined)	8.933%
c1ccc(-c2cc(CNCCN3CCCC3)c3nnnn3c2)cc1	12.86%
N#CC(NC(=O)CNC(=O)c1ccccc1)c1ccsc1 (centres undefined)	9.399%
CN(C)c1nccc(N2CCO[C@H]3CN(Cc4ccsc4)C[C@H]32)n1	18.5%
Cc1cc(C(=O)NCC(c2ccccc2Cl)N2CCOCC2)on1 (centres undefined)	5.435%
CCC(CO)N(Cc1ccccn1)C(=O)c1ccc(=O)[nH]c1 (centres undefined)	11.73%
COc1ccc(C(O)CNC(=O)NCc2nc(C)cs2)cc1 (centres undefined)	21.79%
CCS(=O)(=O)c1ccccc1N1CCC(NC(=O)NC2CCCC2)CC1	9.206%
CN(Cc1cc(C(C)(C)C)n[nH]1)C(=O)c1ccc2nccn2c1	18.38%
Cc1ccnn1CCC(=O)N(Cc1ccsc1)CC(C)C	8.974%
Cc1nc(CN2CCN(Cc3nccn3C)CC2)no1	18.88%
Cc1ccc(-c2nc(CN(C)C3CCS(=O)(=O)C3)cs2)o1 (centres undefined)	12.98%
CN(C)C(=O)N1C[C@@H]2CC[C@H](C1)N(Cc1nnc(-c3ccccc3)o1)C2	14.52%
Cc1ncsc1CCC(=O)N1CCCC1c1cccnc1 (centres undefined)	16.45%
Cc1nc[nH]c1-c1nnc(SCC(=O)O)n1-c1ccccc1C(F)(F)F	11.76%
CCN(Cc1cnn(CC)c1)C(=O)CN1C(=O)CCc2ccccc21	11.23%
CCC(=O)N(C)C1CCN(Cc2ncc(C)c(OC)c2C)CC1	6.883%
CCCNc1nc(CS(=O)(=O)c2ccccc2)cs1	13.19%
CCC(=O)N1CCC(Cc2ccccc2-c2ccncc2)(C(=O)NC)C1 (centres undefined)	17.48%
O=C(c1ccc(O)nc1)N1Cc2ccccc2OC2(CCOCC2)C1	21.86%
Cc1ccc(-c2ncc(CNc3cnccc3CO)s2)cc1	1.863%
CC(c1ccccc1Cl)N(C)Cc1nc2c(cnn2C)c(=O)[nH]1 (centres undefined)	16.83%
CCOCC1CN(Cc2cnn(C)c2)Cc2ncn(CC3CC3)c21 (centres undefined)	7.296%
N#Cc1cccc(CN2Cc3nccn3CC(COCC3CC3)C2)c1 (centres undefined)	6.135%
CN1N=C(C(=O)N2CCN(c3ncccn3)CC2)CCC1=O	7.444%
CCn1c(Cn2cncn2)nnc1C1CCN(Cc2ccccn2)CC1	0.2874%
N#Cc1ccc(N2CCC3(CCC(=O)N3CCN3CCCC3)CC2)nc1	8.798%
O=C(c1ccc(Cl)s1)N1CC(c2nc(-c3ccc[nH]c3=O)no2)C1	8.633%
COCCO[C@H]1CCN(C(=O)c2cnoc2C)[C@H]1Cc1cnn(C)c1	21.43%
CNc1cccc(C2CCN(C(C)=O)CC2)n1	18.73%
CCN(Cc1ccoc1)C(=O)Nc1ccccc1CN(C)C(C)=O	7.666%
Cc1nc(C)n(CC2CN(CCc3ccncc3)CCO2)n1 (centres undefined)	9.36%
Cc1ncsc1C(=O)NC1CCN(Cc2ccc(C(N)=O)cc2)CC1	18.07%
CC(C)C(NC(=O)NCCNc1ncccn1)c1cccs1 (centres undefined)	19.09%
CC(C)c1nn(C)c(N(C)C)c1CNCc1ccc(N(C)C)nc1	21.31%
CCN(CC(=O)NC(C)C)S(=O)(=O)N1CCCC(C)C1 (centres undefined)	9.363%
CC(C)c1nccn1C1CCCN(C(=O)CCc2cnn(C)c2)C1 (centres undefined)	21.14%
OCCOc1ccc(NCc2cccc3cn[nH]c23)cn1	13.24%
O=C(CNC(=O)C1CC1)NCC(F)(F)F	7.971%
CS(=O)(=O)Cc1ccc(Cl)cc1NCc1ccccc1F	7.986%
CO[C@H]1CN(C(=O)c2ccc3oc(C)cc3c2)C[C@@]12CCCO2	14.82%
CN(C)S(=O)(=O)NCC(Cc1cccc(F)c1)N1CCNC1=O (centres undefined)	19.83%
CN(C)CC1CN(Cc2cccc(C(=O)N(C)C)c2)CCO1 (centres undefined)	8.502%
CC(C)c1nc2n(n1)CC(Nc1ncnc3ccccc13)CC2 (centres undefined)	12.81%
O=C(OCCF)c1cccc(C(=O)N2CCCC2)n1	2.128%
CC(C)N(Cc1nc2c(cnn2C)c(=O)[nH]1)c1ccccc1	14.11%
Cc1ccc([C@@H]2CN(S(=O)(=O)c3ccccc3)C[C@H]2N(C)C)cc1	7.117%
Cc1csc(C(=O)NCCN2CCC(c3cccs3)CC2)c1	11.83%
Cc1cccc(CN(Cc2ccccn2)S(=O)(=O)N(C)C)c1	6.091%
CC(c1nc(C2CC2)no1)N1CCN(Cc2noc(C3CC3)n2)CC1 (centres undefined)	2.732%
Fc1ccccc1Cn1c(C2CCNCC2)cc2cccnc21	17.19%
COCCN1CCCCC12CC(=O)N(c1cccc(C#N)c1)C2 (centres undefined)	11.43%
CC(O)CN1CCC(CNCc2ccc(OC(F)(F)F)cc2)CC1 (centres undefined)	13.16%
CN(C)Cc1nc(C(C)(C)NC(=O)c2nc3ccccc3s2)no1	2.484%
C[C@@H]1CN(Cc2ccccc2F)CC(C(N)=O)O1 (some centres undefined)	8.333%
Cc1cc(C[S+]([O-])CC(=O)NCc2cccs2)no1 (centres undefined)	11.74%
Cc1ccc(C)c(S(=O)(=O)NCCC(=O)NCc2ccoc2)c1	15.38%
Cc1cc(C)n(C2CN(CC(=O)N(C)Cc3ccsc3)C2)n1	10.08%
COCCNC(=O)c1cc(C2CC2)nc2onc(C3CCNC3)c12 (centres undefined)	8%
CCn1cnnc1CNC(=O)N1CCC(Cc2cccnc2)CC1	0%
CC(C)C(=O)N1CCC2(CN(CC3CCCC3)C2)C1	6.62%
CCOC(=O)c1ccc(S(=O)(=O)NCC(CC)N2CCCC2)cc1 (centres undefined)	1.412%
CCc1c(C)nc2cc(C3CCN(Cc4cccc(F)c4)C3)nn2c1O (centres undefined)	19.79%
O=C(NC1CC(F)(F)C1)[C@]12COC[C@H]1CN(Cc1ccsc1)C2	16.25%
O=C(NCCNc1ncccn1)N1CCc2ccccc2C1	-15.84%
COCCN1CCCC2(CCN(c3nccc4ccccc34)C2)C1=O (centres undefined)	8.591%
O=C(NS(=O)(=O)c1cnn(-c2ccccc2F)c1)c1ccoc1	-0.7246%
Cc1cc(C(=O)NCCN2CCCC(C)C2)nn1C (centres undefined)	14.17%
CN(C)C(=O)N1CCC(C(=O)NCCNc2ncccc2C#N)CC1	10.05%
CN(C)c1cccc(C2CCN(C3COCC3O)CC2)n1 (centres undefined)	16.46%
CCS(=O)(=O)CC(C)N(C)C(=O)NCCc1cccc(F)c1F (centres undefined)	7.394%
Cc1cc(C)c(CNC(=O)NCc2nnc3n2CCC3)c(=O)[nH]1	-1.42%
COc1ncccc1CN1C[C@H]2CCN(c3ccc(C)nn3)C[C@H]2C1	1.099%
Cc1c(C(=O)N2CCN(c3ccccn3)CC2)n(C)c2ccc(Cl)cc12	22.52%
O=C(CN1CCCC1Cn1cccn1)NC1CCN(C2CC2)CC1 (centres undefined)	17.06%
CO[C@@H]1CCN(Cc2cccs2)[C@@H]2CN(Cc3ccncc3)C[C@@H]21	9.836%
Cn1cc(NC(=O)c2ccccn2)cc(Cl)c1=O	0.7692%
Clc1cncc(N2CCCC2c2nnc3n2CCCCC3)n1 (centres undefined)	15.45%
CCn1nc(C)c2nc(C(C)C)nc(N3CCCC3)c21	-16.13%
CC(=O)OC1CN(c2nc3c(C(F)(F)F)cccc3s2)C1	13.24%
CCOCC1CN(C(=O)c2ccoc2)Cc2cnn(C)c21 (centres undefined)	-2.186%

The first 6 entries again:

{"structure": "O=C(NC1CC1)C1CNCCN1C(=O)COc1ccc2c(c1)OCO2", "stereo": "centres undefined", "Inhibition": 8.933}
{"structure": "c1ccc(-c2cc(CNCCN3CCCC3)c3nnnn3c2)cc1", "Inhibition": 12.86}
{"structure": "N#CC(NC(=O)CNC(=O)c1ccccc1)c1ccsc1", "stereo": "centres undefined", "Inhibition": 9.399}
{"structure": "CN(C)c1nccc(N2CCO[C@H]3CN(Cc4ccsc4)C[C@H]32)n1", "Inhibition": 18.5}
{"structure": "Cc1cc(C(=O)NCC(c2ccccc2Cl)N2CCOCC2)on1", "stereo": "centres undefined", "Inhibition": 5.435}
{"structure": "CCC(CO)N(Cc1ccccn1)C(=O)c1ccc(=O)[nH]c1", "stereo": "centres undefined", "Inhibition": 11.73}

From ChEMBL document CHEMBL3988442, “University of Dundee, Small-Polar-MMV Screening Library” (2021).